Experimental data published in BigSolDB 2.1.

N[C@@H](Cc1ccc(O)cc1)C(=O)O
solubility (mole fraction)
Details	283.15 K	288.15 K	293.15 K	298.15 K	303.15 K	308.15 K	313.15 K	318.15 K	323.15 K
in DMSO	0.000143	0.000159	0.000176	0.000193	0.000214	0.000234	0.000258	0.000282	0.000308
in ethanol	3.87e-07	5.16e-07	6.58e-07	8.69e-07	1.11e-06	1.4e-06	1.74e-06	2.14e-06	2.65e-06
in methanol	6.42e-07	8.35e-07	1.08e-06	1.39e-06	1.8e-06	2.23e-06	2.72e-06	3.31e-06	4.03e-06
in n-propanol	8.72e-08	1.28e-07	1.83e-07	2.69e-07	3.77e-07	5.24e-07	7.27e-07	9.92e-07	1.33e-06
in water	2.75e-05	3.4e-05	4.18e-05	5e-05	5.95e-05	7.23e-05	8.53e-05	0.0001	0.000119
